The record followed here is doi:10.1101/2025.03.06.641931.

By UniProt entry, the sequences of proteins in these tests, tags left out. Residues count along the entry.
UniProt P19490, residues 19-907: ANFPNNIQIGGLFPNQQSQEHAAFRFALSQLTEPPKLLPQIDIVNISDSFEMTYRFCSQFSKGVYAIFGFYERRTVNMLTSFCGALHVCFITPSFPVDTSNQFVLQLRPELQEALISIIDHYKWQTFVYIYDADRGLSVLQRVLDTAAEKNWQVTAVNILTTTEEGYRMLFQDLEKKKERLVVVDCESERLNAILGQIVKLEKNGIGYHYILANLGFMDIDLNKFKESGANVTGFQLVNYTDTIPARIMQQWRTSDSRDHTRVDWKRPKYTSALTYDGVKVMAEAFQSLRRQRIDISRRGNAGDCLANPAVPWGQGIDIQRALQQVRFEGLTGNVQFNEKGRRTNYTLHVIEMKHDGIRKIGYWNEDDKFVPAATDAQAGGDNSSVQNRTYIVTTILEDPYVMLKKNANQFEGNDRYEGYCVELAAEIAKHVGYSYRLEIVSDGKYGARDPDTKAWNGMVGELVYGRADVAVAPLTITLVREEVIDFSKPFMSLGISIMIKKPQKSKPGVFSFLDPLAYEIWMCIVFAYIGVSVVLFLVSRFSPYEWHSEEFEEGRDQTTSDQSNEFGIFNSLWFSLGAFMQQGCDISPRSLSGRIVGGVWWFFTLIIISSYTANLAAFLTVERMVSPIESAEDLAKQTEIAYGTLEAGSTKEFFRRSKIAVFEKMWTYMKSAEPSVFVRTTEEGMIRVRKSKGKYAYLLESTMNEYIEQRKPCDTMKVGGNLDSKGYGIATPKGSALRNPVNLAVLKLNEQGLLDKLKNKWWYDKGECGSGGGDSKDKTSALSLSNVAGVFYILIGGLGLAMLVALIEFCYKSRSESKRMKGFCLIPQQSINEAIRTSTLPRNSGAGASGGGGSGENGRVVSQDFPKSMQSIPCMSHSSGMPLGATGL

These are yes or no findings as the source states them, for the method shown. Binding seen in cells or lysates may run through a third protein. Some results given as binding are weak or reduced against the parent protein; the word gives no strength. Tags and fused reporters may be left off the sequences shown.

The test has as its target T1, FLAG-PRRT2 (proline-rich transmembrane protein 2) (UniProt E9PUL5).
T1 sequence: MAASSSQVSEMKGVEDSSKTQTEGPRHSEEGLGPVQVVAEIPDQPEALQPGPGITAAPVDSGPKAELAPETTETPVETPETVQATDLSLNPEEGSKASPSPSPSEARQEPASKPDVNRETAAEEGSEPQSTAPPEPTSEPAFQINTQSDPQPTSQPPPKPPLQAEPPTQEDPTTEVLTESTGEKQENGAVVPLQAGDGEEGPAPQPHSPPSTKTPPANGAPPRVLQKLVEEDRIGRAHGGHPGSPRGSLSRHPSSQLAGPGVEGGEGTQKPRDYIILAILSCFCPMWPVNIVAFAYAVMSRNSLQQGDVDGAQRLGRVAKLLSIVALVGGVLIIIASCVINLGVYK
The test can be described thus: co-IP.

Turning to “AMPA receptor subunit GluA1 (overexpressed in HEK293T) (from UniProt P19490 19-907)”, the binding entry is “binds”.
